The list shows only some results of the screen, not a fair sample: it gathers some chemical classes. Not every dose and run of a compound is shown. T/C gives the treated animals as a percentage of the vehicle group. Some doses have a count of surviving animals in place of a T/C: the source files T/C as zero there, which appears to mark a toxic dose or a test without result, not a measured value. Some survivor counts are full or nearly so, which does not show that the dose was tolerated: survival well below the control is almost never listed, so the zero probably covers shortened survival too. Counts of survivors are from the toxicity check (mostly the fifth day) where no day follows; animals may have died later. Schedule codes are those of the source, read here as Q, the interval in days (D) or hours (H), X, the number of doses. Some schedule codes hold Z or #, which are not explained here. Where survival is the endpoint, the PubChem record calls one and a half times the control and up active, and a quarter to a half above the control has no call in these data; cut-offs in other NCI protocols can differ. Some entries were tested several times; the values are given in rising order. Some entries show no survivor count and are marked so; the dose need not have been tolerated. Some T/C values carry the count of animals alive at the toxicity check (mostly the fifth day); where neither a count nor a note follows, no animal had died by that day.
System: L1210 leukemia ip in BDF1 mice, survival T/C
Assay: NCI In Vivo Anticancer Drug Screen. Data for tumor model L1210 Leukemia (intraperitoneal) in B6D2F1 (BDF1) mice
Details: T/C endpoint: mean survival time, higher T/C = longer survival
[1] = dose: 67.5 mg/kg/injection, schedule: Q01DX Z (ip), vehicle: methylcellulose (MC)
[2] = dose: 100.0 mg/kg/injection, schedule: Q01DX001 (ip), vehicle: saline
[3] = dose: 200.0 mg/kg/injection, schedule: Q01DX001 (ip), vehicle: saline
[4] = dose: 400.0 mg/kg/injection, schedule: Q01DX001 (ip), vehicle: saline
[5] = dose: 100.0 mg/kg/injection, schedule: Q04DX002 (ip), vehicle: saline with Tween-80
[6] = dose: 200.0 mg/kg/injection, schedule: Q04DX002 (ip), vehicle: saline with Tween-80
[7] = dose: 400.0 mg/kg/injection, schedule: Q04DX002 (ip), vehicle: saline with Tween-80

Structure (SMILES): NC(CC(=O)O)c1cccc(N(CCCl)CCCl)c1 (stereo not drawn)
- T/C (dose: 4.0 mg/kg/injection, schedule: Q01DX Z (ip), vehicle: carboxymethylcellulose (CMC)): 114 % of control
- T/C (dose: 6.0 mg/kg/injection, schedule: Q01DX Z (ip), vehicle: carboxymethylcellulose (CMC)): 124 % of control
- T/C (dose: 9.0 mg/kg/injection, schedule: Q01DX Z (ip), vehicle: carboxymethylcellulose (CMC)): 134 % of control
- T/C (dose: 9.0 mg/kg/injection, schedule: Q01DX Z (ip), vehicle: methylcellulose (MC)): 212 % of control
- T/C (dose: 13.0 mg/kg/injection, schedule: Q01DX Z (ip), vehicle: methylcellulose (MC)): 202 % of control
- T/C (dose: 20.0 mg/kg/injection, schedule: Q01DX Z (ip), vehicle: methylcellulose (MC)): 169, 176, 226 % of control
- T/C (dose: 30.0 mg/kg/injection, schedule: Q01DX Z (ip), vehicle: methylcellulose (MC)): 147, 152, 161 % of control
- T/C (dose: 45.0 mg/kg/injection, schedule: Q01DX Z (ip), vehicle: methylcellulose (MC)): 132 and 139 % of control
- T/C [1]: 88 % of control [5 of 6 alive]
- survivor count [1]: 6 of 6

Structure (SMILES): CCOC(=O)NNC(=S)NP(=O)(NC(=S)NNC(=O)OCC)NC(=S)NNC(=O)OCC
- T/C (dose: 75.0 mg/kg/injection, schedule: Q01DX001 (ip), vehicle: saline): 91 % of control
- T/C (dose: 150.0 mg/kg/injection, schedule: Q01DX001 (ip), vehicle: saline): 90 % of control
- survivor count (dose: 300.0 mg/kg/injection, schedule: Q01DX001 (ip), vehicle: saline): 1 of 6

Structure (SMILES): CC(C)SC(OC(=O)COc1ccc(Cl)cc1Cl)C(Cl)(Cl)Cl (stereo not drawn)
- T/C (dose: 100.0 mg/kg/injection, schedule: Q01DX009 (ip), vehicle: other): 90 % of control
- T/C (dose: 100.0 mg/kg/injection, schedule: Q04DX003 (ip), vehicle: other): 92 % of control
- T/C (dose: 200.0 mg/kg/injection, schedule: Q01DX009 (ip), vehicle: other): 95 % of control
- T/C (dose: 200.0 mg/kg/injection, schedule: Q04DX003 (ip), vehicle: other): 100 % of control
- survivor count (dose: 400.0 mg/kg/injection, schedule: Q01DX009 (ip), vehicle: other): 6 of 6
- T/C (dose: 400.0 mg/kg/injection, schedule: Q04DX003 (ip), vehicle: other): 108 % of control

Structure (SMILES): CCCc1cc(C)cc(N=Cc2ccccc2)c1O.O=C1c2cc([N+](=O)[O-])ccc2-c2c1cc([N+](=O)[O-])cc2[N+](=O)[O-]
- T/C (dose: 100.0 mg/kg/injection, schedule: Q04DX003 (ip), vehicle: saline with Tween-80): 95 % of control
- T/C (dose: 200.0 mg/kg/injection, schedule: Q04DX003 (ip), vehicle: saline with Tween-80): 100 % of control [5 of 6 alive]
- survivor count (dose: 400.0 mg/kg/injection, schedule: Q04DX003 (ip), vehicle: saline with Tween-80): 3 of 6

Structure (SMILES): CC(Cl)CSc1ccccc1 (stereo not drawn)
- T/C (dose: 100.0 mg/kg/injection, schedule: Q01DX009 (ip), vehicle: saline with Tween-80): 109 % of control

Structure (SMILES): CN(C)N(C)P(N)(Cl)(c1ccccc1)c1ccccc1
- T/C (dose: 5.0 mg/kg/injection, schedule: Q01DX001 (ip), vehicle: saline): 101 % of control
- T/C (dose: 10.0 mg/kg/injection, schedule: Q01DX001 (ip), vehicle: saline): 97 % of control
- T/C (dose: 20.0 mg/kg/injection, schedule: Q01DX001 (ip), vehicle: saline): 95 % of control
- T/C (dose: 40.0 mg/kg/injection, schedule: Q01DX001 (ip), vehicle: saline): 105 % of control
- survivor count (dose: 80.0 mg/kg/injection, schedule: Q01DX001 (ip), vehicle: saline): 0 of 6
- survivor count [2]: 1 of 4
- survivor count [3]: 0 of 4
- survivor count [4]: 0 of 4

Structure (SMILES): CC1COP(N(C)C)O1 (stereo not drawn)
- T/C [2]: 101 % of control
- T/C [3]: 97 % of control
- T/C [4]: 92 % of control

Structure (SMILES): O=P(Cl)(CCl)c1ccccc1 (stereo not drawn)
- T/C (dose: 9.37 mg/kg/injection, schedule: Q01DX009 (ip), vehicle: saline): 96 % of control
- T/C (dose: 18.75 mg/kg/injection, schedule: Q01DX009 (ip), vehicle: saline): 96 % of control
- T/C (dose: 18.75 mg/kg/injection, schedule: Q04DX003 (ip), vehicle: acetone): 94 % of control
- T/C (dose: 37.5 mg/kg/injection, schedule: Q01DX009 (ip), vehicle: saline): 95 % of control
- T/C (dose: 37.5 mg/kg/injection, schedule: Q04DX003 (ip), vehicle: acetone): 94 % of control
- T/C (dose: 75.0 mg/kg/injection, schedule: Q01DX001 (ip), vehicle: acetone): 94 % of control
- T/C (dose: 75.0 mg/kg/injection, schedule: Q04DX003 (ip), vehicle: acetone): 98 % of control [5 of 6 alive]
- survivor count (dose: 150.0 mg/kg/injection, schedule: Q01DX001 (ip), vehicle: acetone): 3 of 6
- survivor count (dose: 300.0 mg/kg/injection, schedule: Q01DX001 (ip), vehicle: acetone): 0 of 6

Structure (SMILES): CCCOP(C)(=S)OCCC
- T/C [5]: 99 % of control [survivor count not shown]
- T/C [6]: 92 % of control [survivor count not shown]

Structure (SMILES): CCCCO[PH](=O)OCCCC.[I][Hg]
- T/C (dose: 25.0 mg/kg/injection, schedule: Q04DX002 (ip), vehicle: Klucel (hydroxypropylcellulose) (HPC)): 108 % of control
- T/C (dose: 50.0 mg/kg/injection, schedule: Q04DX002 (ip), vehicle: Klucel (hydroxypropylcellulose) (HPC)): 91 % of control
- survivor count (dose: 100.0 mg/kg/injection, schedule: Q04DX002 (ip), vehicle: Klucel (hydroxypropylcellulose) (HPC)): 3 of 3
- T/C [5]: 98 % of control [2 of 3 alive]
- survivor count [6]: 0 of 3
- survivor count [7]: 0 of 3

Structure (SMILES): CN(C)C(=O)CCc1ccc(N(CCCl)CCCl)cc1
- T/C (dose: 2.5 mg/kg/injection, schedule: Q04DX003 (ip), vehicle: Klucel (hydroxypropylcellulose) (HPC)): 106 % of control
- T/C (dose: 5.0 mg/kg/injection, schedule: Q01DX009 (ip), vehicle: Klucel (hydroxypropylcellulose) (HPC)): 104 % of control
- T/C (dose: 5.0 mg/kg/injection, schedule: Q04DX003 (ip), vehicle: Klucel (hydroxypropylcellulose) (HPC)): 107 % of control
- T/C (dose: 10.0 mg/kg/injection, schedule: Q01DX009 (ip), vehicle: Klucel (hydroxypropylcellulose) (HPC)): 112 % of control
- T/C (dose: 10.0 mg/kg/injection, schedule: Q04DX003 (ip), vehicle: Klucel (hydroxypropylcellulose) (HPC)): 106 % of control
- T/C (dose: 20.0 mg/kg/injection, schedule: Q01DX001 (ip), vehicle: Klucel (hydroxypropylcellulose) (HPC)): 112 % of control
- T/C (dose: 20.0 mg/kg/injection, schedule: Q01DX009 (ip), vehicle: Klucel (hydroxypropylcellulose) (HPC)): 110 % of control
- T/C (dose: 20.0 mg/kg/injection, schedule: Q04DX003 (ip), vehicle: Klucel (hydroxypropylcellulose) (HPC)): 109 % of control
- T/C (dose: 40.0 mg/kg/injection, schedule: Q01DX001 (ip), vehicle: Klucel (hydroxypropylcellulose) (HPC)): 112 % of control [5 of 6 alive]
- T/C (dose: 80.0 mg/kg/injection, schedule: Q01DX001 (ip), vehicle: Klucel (hydroxypropylcellulose) (HPC)): 109 % of control
- T/C (dose: 100.0 mg/kg/injection, schedule: Q01DX001 (ip), vehicle: Klucel (hydroxypropylcellulose) (HPC)): 128 % of control
- survivor count (dose: 200.0 mg/kg/injection, schedule: Q01DX001 (ip), vehicle: Klucel (hydroxypropylcellulose) (HPC)): 0 of 6
- survivor count (dose: 400.0 mg/kg/injection, schedule: Q01DX001 (ip), vehicle: Klucel (hydroxypropylcellulose) (HPC)): 0 of 6

Structure (SMILES): CC1CC[P+](c2ccccc2)(c2ccccc2)Cc2ccccc21.F[P-](F)(F)(F)(F)F (stereo not drawn)
- T/C [5]: 92 % of control
- survivor count [6]: 3 of 3
- survivor count [7]: 0 of 3

Structure (SMILES): O=[N+]([O-])Cc1ccc([N+](=O)[O-])cc1
- T/C (dose: 9.38 mg/kg/injection, schedule: Q01DX001 (ip), vehicle: other): 90 % of control
- T/C (dose: 18.75 mg/kg/injection, schedule: Q01DX001 (ip), vehicle: other): 100 % of control
- T/C (dose: 37.5 mg/kg/injection, schedule: Q01DX001 (ip), vehicle: other): 95 % of control
- survivor count (dose: 75.0 mg/kg/injection, schedule: Q01DX001 (ip), vehicle: other): 1 of 6
- survivor count (dose: 150.0 mg/kg/injection, schedule: Q01DX001 (ip), vehicle: other): 1 of 6
- survivor count (dose: 300.0 mg/kg/injection, schedule: Q01DX001 (ip), vehicle: other): 0 of 6

Source: PubChem BioAssay AID248 (DTP/NCI, 2004)
